# Where a chain is given by its changes, count along the chain named.
# B1: 34E, 72A (protein, listed as Rattus norvegicus)
# chain: AFDGTWKVDRNENYEKFMEKMGINVVKRKLGAHENLKLTITQEGNKFTVKESSNFRNIDVVFELGVDFAYSAADGTELTGTWTMEGNKLVGKFKRVDNGKELIAVREISGNELIQTYTYEGVEAKRIFKKE
# modifications: PEPTIDE (1)...(131) wild-type rat intestinal fatty acid binding protein
# B2: 18Q, 72A (protein, listed as Rattus norvegicus)
# chain: B1 chain with M18Q, E34D
# modifications: PEPTIDE (1)...(131) wild-type rat intestinal fatty acid binding protein
# B3: 23W1, 72A (protein, listed as Rattus norvegicus)
# chain: B1 chain with I23W, E34D
# modifications: PEPTIDE (1)...(131) wild-type rat intestinal fatty acid binding protein
# B4: 23N1, 72A (protein, listed as Rattus norvegicus)
# chain: B1 chain with I23N, E34D
# modifications: PEPTIDE (1)...(131) wild-type rat intestinal fatty acid binding protein
# B5: 31E3, 72A (protein, listed as Rattus norvegicus)
# chain: B1 chain with G31E, E34D
# modifications: PEPTIDE (1)...(131) wild-type rat intestinal fatty acid binding protein
# B6: 31R1, 72A (protein, listed as Rattus norvegicus)
# chain: B1 chain with G31R, E34D
# modifications: PEPTIDE (1)...(131) wild-type rat intestinal fatty acid binding protein
# B7: 23K1, 72A (protein, listed as Rattus norvegicus)
# chain: B1 chain with I23K, E34D
# modifications: PEPTIDE (1)...(131) wild-type rat intestinal fatty acid binding protein
# B8: 31F2, 72A (protein, listed as Rattus norvegicus)
# chain: B1 chain with G31F, E34D
# modifications: PEPTIDE (1)...(131) wild-type rat intestinal fatty acid binding protein
# B9: 23H1, 72A (protein, listed as Rattus norvegicus)
# chain: B1 chain with I23H, E34D
# modifications: PEPTIDE (1)...(131) wild-type rat intestinal fatty acid binding protein
# B10: 23F2, 72A (protein, listed as Rattus norvegicus)
# chain: B1 chain with I23F, E34D
# modifications: PEPTIDE (1)...(131) wild-type rat intestinal fatty acid binding protein
# B11: 31K2, 72A (protein, listed as Rattus norvegicus)
# chain: B1 chain with G31K, E34D
# modifications: PEPTIDE (1)...(131) wild-type rat intestinal fatty acid binding protein
# B12: 31Y2, 72A (protein, listed as Rattus norvegicus)
# chain: B1 chain with G31Y, E34D
# modifications: PEPTIDE (1)...(131) wild-type rat intestinal fatty acid binding protein
# B13: 31P1, 72A (protein, listed as Rattus norvegicus)
# chain: B1 chain with G31P, E34D
# modifications: PEPTIDE (1)...(131) wild-type rat intestinal fatty acid binding protein
# B14: 31M2, 72A (protein, listed as Rattus norvegicus)
# chain: B1 chain with G31M, E34D
# modifications: PEPTIDE (1)...(131) wild-type rat intestinal fatty acid binding protein
# B15: 34K, 72A (protein, listed as Rattus norvegicus)
# chain: B1 chain with E34K
# modifications: PEPTIDE (1)...(131) wild-type rat intestinal fatty acid binding protein
# B16: 31W2, 72A (protein, listed as Rattus norvegicus)
# chain: B1 chain with G31W, E34D
# modifications: PEPTIDE (1)...(131) wild-type rat intestinal fatty acid binding protein
# B17: 23P1, 72A (protein, listed as Rattus norvegicus)
# chain: B1 chain with I23P, E34D
# modifications: PEPTIDE (1)...(131) wild-type rat intestinal fatty acid binding protein
# B18: 31D2, 72A (protein, listed as Rattus norvegicus)
# chain: B1 chain with G31D, E34D
# modifications: PEPTIDE (1)...(131) wild-type rat intestinal fatty acid binding protein
# B19: 23R3, 72A (protein, listed as Rattus norvegicus)
# chain: B1 chain with I23R, E34D
# modifications: PEPTIDE (1)...(131) wild-type rat intestinal fatty acid binding protein
# B20: 23V2, 72A (protein, listed as Rattus norvegicus)
# chain: B1 chain with I23V, E34D
# modifications: PEPTIDE (1)...(131) wild-type rat intestinal fatty acid binding protein
# B21: 31T2, 72A (protein, listed as Rattus norvegicus)
# chain: B1 chain with G31T, E34D
# modifications: PEPTIDE (1)...(131) wild-type rat intestinal fatty acid binding protein
# B22: 31Q3, 72A (protein, listed as Rattus norvegicus)
# chain: B1 chain with G31Q, E34D
# modifications: PEPTIDE (1)...(131) wild-type rat intestinal fatty acid binding protein
# B23: 21W, 72A (protein, listed as Rattus norvegicus)
# chain: B1 chain with M21W, E34D
# modifications: PEPTIDE (1)...(131) wild-type rat intestinal fatty acid binding protein
# B24: 34C, 72A (protein, listed as Rattus norvegicus)
# chain: B1 chain with E34C
# modifications: PEPTIDE (1)...(131) wild-type rat intestinal fatty acid binding protein
# B25: 34G, 72A (protein, listed as Rattus norvegicus)
# chain: B1 chain with E34G
# modifications: PEPTIDE (1)...(131) wild-type rat intestinal fatty acid binding protein
# B26: 31Y1, 72A (protein, listed as Rattus norvegicus)
# chain: B1 chain with G31Y, E34D
# modifications: PEPTIDE (1)...(131) wild-type rat intestinal fatty acid binding protein
# B27: 31I1, 72A (protein, listed as Rattus norvegicus)
# chain: B1 chain with G31I, E34D
# modifications: PEPTIDE (1)...(131) wild-type rat intestinal fatty acid binding protein
# B28: 31C1, 72A (protein, listed as Rattus norvegicus)
# chain: B1 chain with G31C, E34D
# modifications: PEPTIDE (1)...(131) wild-type rat intestinal fatty acid binding protein
# B29: 23T1, 72A (protein, listed as Rattus norvegicus)
# chain: B1 chain with I23T, E34D
# modifications: PEPTIDE (1)...(131) wild-type rat intestinal fatty acid binding protein
# B30: 23L3, 72A (protein, listed as Rattus norvegicus)
# chain: B1 chain with I23L, E34D
# modifications: PEPTIDE (1)...(131) wild-type rat intestinal fatty acid binding protein
# B31: 34A, 72A (protein, listed as Rattus norvegicus)
# chain: B1 chain with E34A
# modifications: PEPTIDE (1)...(131) wild-type rat intestinal fatty acid binding protein
# B32: 23Y1, 72A (protein, listed as Rattus norvegicus)
# chain: B1 chain with I23Y, E34D
# modifications: PEPTIDE (1)...(131) wild-type rat intestinal fatty acid binding protein
# B33: 31N2, 72A (protein, listed as Rattus norvegicus)
# chain: B1 chain with G31N, E34D
# modifications: PEPTIDE (1)...(131) wild-type rat intestinal fatty acid binding protein
# B34: 34H, 72A (protein, listed as Rattus norvegicus)
# chain: B1 chain with E34H
# modifications: PEPTIDE (1)...(131) wild-type rat intestinal fatty acid binding protein
# B35: 31V2, 72A (protein, listed as Rattus norvegicus)
# chain: B1 chain with G31V, E34D
# modifications: PEPTIDE (1)...(131) wild-type rat intestinal fatty acid binding protein
# Assay: Baseline fluorescence ratio Ro of probe in absence of analyte
# Conditions: baseline fluorescence ratio of probe
row,Molecule,Ro
1,B1,0.317

# Same assay, conditions: baseline fluorescence ratio of probe, no fatty acid
row,Molecule,AvgOfRo
1,B2,0.22
2,B3,0.45
3,B4,0.22
4,B5,0.35
5,B6,0.18
6,B7,0.45
7,B8,0.43
8,B9,0.20
9,B10,0.22
10,B11,0.26
11,B12,0.69
12,B13,0.27
13,B14,0.81
14,B15,0.48
15,B16,0.46
16,B17,0.32
17,B18,0.31
18,B19,0.20

row,Molecule,AvgOfRo
1,B1,0.32
2,B20,0.17
3,B21,0.37
4,B22,0.38
5,B23,0.60
6,B24,0.44
7,B25,0.51
8,B26,0.48
9,B27,0.68
10,B28,0.30
11,B29,0.16
12,B30,0.23
13,B31,0.35
14,B32,0.26
15,B33,0.36
16,B34,0.37
17,B35,0.61

# From US20060257938A1, “Method of screening for drugs that block ligand binding to a lipid binding protein” (priority 2005, published 2006)
